The record followed here is publication doi:10.1101/2024.11.04.621798.

The experiment deals with UNC-70::GFP (C. elegans beta-spectrin tagged with GFP) (C. elegans). Briefly: co-IP.

These are yes or no findings as the source states them, for the method shown. In cells and extracts the contact can be indirect.

B1: CLP-1::mKate (mKate knock-in at the endogenous clp-1 locus) (enzyme, UniProt P34308 1-780)
chain: MADDEEEIIQKVEVKPDEFNGLIGSIAGNLIRDKVGGAGGDILGGLASNFFGGGGGGGGGGGGGGFGGGNGGFGGGSNYDQGGNGNSGDQQKRKRDMAKDLIGGIFDNVVNRKGKKEQDNYGGGGNYGGGGGNQGGGGGGGFNFNDIGGLINSMGGGGGGGQRQGGGGGGFGDILGGIGSLIGGGGGGQYNGGGGNVNPNNLNGGMVNVIGNLIGEAAHRFLGVDPGTGRIIGAVAGNVIMGLGGKDNSLGNIGKVILDNIISGKFRRDVDPFVRPGPDPDRGGGGSGPSPISPRPTTEPQDFYELRDQCLESKRLFEDPQFLANDSSLFFSKRPPKRVEWLRPGEITREPQLITEGHSRFDVIQGELGDCWLLAAAANLTLKDELFYRVVPPDQSFTENYAGIFHFQFWQYGKWVDVVIDDRLPTSNGELLYMHSASNNEFWSALLEKAYAKLFGSYEALKGGTTSEALEDMTGGLTEFIDLKNPPRNLMQMMMRGFEMGSLFGCSIEADPNVWEAKMSNGLVKGHAYSITGCRIVDGPNGQTCILRIRNPWGNEQEWNGPWSDNSREWRSVPDSVKQDMGLKFDHDGEFWMSFDDFMRNFEKMEICNLGPDVMDEVYQMTGVKAAGMVWAANTHDGAWVRNQTAGGCRNYINTFANNPQFRVQLTDSDPDDDDELCTVIFAVLQKYRRNLKQDGLDNVPIGFAVYDAGNNRGRLSKQFFAANKSAMRSAAFINLREMTGRFRVPPGNYVVVPSTFEPNEEAEFMLRVYTNGFIESEEL
With B1, the binding entry is on record as “no binding”.
